{"source": "PubChem BioAssay AID493014", "about": "(National Center for Advancing Translational Sciences (NCATS), 2011)", "note": "The campaign covered roughly 340,000 compounds. About 170 (0.05%) were called active. Inconclusive means that the source gave no clear call. Such entries were picked first, then a sample of the others. The call rests on the fitted dose curve; in most records, active means well fitted inhibition curve with a large enough effect in the signal ratio, with a control signal flat (not every such curve was filed as active); inconclusive means small, poorly fitted or top-dose-only effect, or effect the other way, or a change in a side signal; inactive means flat fitted curve, though single readings scatter; the % refers to the signal ratio. Potencies beside an inconclusive call are fits to weak or partial responses and may not hold up. Potency means the concentration at half of the fitted maximal effect.", "data": [{"assay": "qHTS Assay to Find Inhibitors of Chronic Active B-Cell Receptor Signaling;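 on activity change, negative = inhibition: plate controls were basal doxycycline-induced cells for no effect and cells given 10 µM MG132 for full effect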", "settings": "ABC-DLBCL IkBa-CBG/CBR reporter, luminescence ratio (green luciferase fused to IkBa over red control in TMD8 lymphoma cells), 4 h; activity change, negative = inhibition: at 46.1 µM (top of the series)", "summary_of_the_method": "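Compounds up to 46 uM were incubated four hours with TMD8 cells whose green CBG68 luciferase is fused to IkappaBalpha; red CBR luminescence normalised the signal, and concentration-effect curves were fitted to fusion, red and ratio data.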", "values": [{"smiles": "Cc1ccc2c(c1)/C(=N/N1C(=O)c3ccccc3C1=O)C(=O)N2", "activity change, negative = inhibition": "inconclusive: -4.51%"}, {"smiles": "CCCC1=C(C(=O)OCC)C(c2cccs2)n2ncnc2N1", "note": "(stereo not given)", "activity change, negative = inhibition": "inconclusive: 22%"}, {"smiles": "CCC1CCCCN1C(=O)CSc1nnc(-c2ccc(Cl)cc2)o1", "note": "(stereo not given)", "activity change, negative = inhibition": "inconclusive: 16.8%"}, {"smiles": "O=C(Nc1ccncc1)Nc1cc(Cl)ccc1Cl", "activity change, negative = inhibition": "inconclusive: -0.496%"}, {"smiles": "CCc1nn(CCCN2CCN(c3cccc(Cl)c3)CC2)c(=O)n1CCOc1ccccc1", "activity change, negative = inhibition": "inconclusive: 18.8%"}, {"smiles": "CC(Oc1ccccc1F)C(=O)Nc1ccc2ccccc2c1", "note": "(stereo not given)", "Potency": "inconclusive: 2.91 µM [rising, partial curve, poor fit]"}, {"smiles": "Cc1csc(=Nc2ccc(S(=O)(=O)N3CCOCC3)cc2)n1Cc1ccco1", "activity change, negative = inhibition": "inconclusive: -1.07%"}, {"smiles": "COc1cccc(NC(=O)c2ccccc2-c2nc(-c3ccc(F)cc3)no2)c1", "activity change, negative = inhibition": "inconclusive: 2.22%"}, {"smiles": "Cc1ccc2nc(-c3ccc(SCC(=O)N4CCc5ccccc54)nc3)[nH]c2c1", "activity change, negative = inhibition": "inconclusive: 7.9%"}, {"smiles": "COc1ccc(Cl)cc1S(=O)(=O)N1CCC(C(=O)NCCC2=CCCCC2)CC1", "activity change, negative = inhibition": "inconclusive: -0.913%"}, {"smiles": "COCC(=O)Nc1nc2n(n1)C(c1ccc(Cl)cc1)CC(c1ccc(OC)cc1)N2", "note": "(stereo not given)", "activity change, negative = inhibition": "inactive: -0.233%"}, {"smiles": "CCn1c(SCC(=O)c2ccc(C)cc2)nnc1-c1ccoc1C", "activity change, negative = inhibition": "inconclusive: -16.4%"}, {"smiles": "O=C(COC(=O)Cc1c(F)cccc1Cl)Nc1ccc2[nH]c(=O)[nH]c2c1", "activity change, negative = inhibition": "inactive: 1.45%"}, {"smiles": "CNc1nc(N/N=C/c2cc3c(cc2[N+](=O)[O-])OCO3)nc(Nc2ccccc2)n1", "Potency": "inconclusive: 35.5 µM [rising, single point]"}, {"smiles": "COc1cccc(C(=O)N2CCSC2=S)c1", "Potency": "inconclusive: 23.1 µM [falling, partial curve, poor fit]"}, {"smiles": "COc1ccc(-c2nnc(SCC(=O)N3CCCCC3)o2)cc1", "activity change, negative = inhibition": "inconclusive: 3.99%"}, {"smiles": "COc1ccc(-c2nn(-c3ccccc3)cc2C(=O)N2CCN(S(=O)(=O)c3ccccc3C#N)CC2)cc1", "activity change, negative = inhibition": "inconclusive: -2.33%"}, {"smiles": "COc1ccc(CN2C3CCC2CC(NC(=O)c2cccc(F)c2)C3)cc1", "note": "(stereo not given)", "activity change, negative = inhibition": "inactive: -1.58%"}, {"smiles": "COc1ccc(N(CC(=O)Nc2ccccc2C(F)(F)F)C2=NC3CS(=O)(=O)CC3S2)cc1", "note": "(stereo not given)", "Potency": "inconclusive: 11.2 µM [falling, partial curve]"}, {"smiles": "CCN1CCC(NC(=O)Nc2ccc(F)cc2F)CC1", "activity change, negative = inhibition": "inconclusive: -13.9%"}, {"smiles": "CCCCn1c(CCc2ccccc2)nc2cc3[nH]c(=O)c(C(C)C)nc3cc21", "activity change, negative = inhibition": "inconclusive: 12.3%"}, {"smiles": "COc1ccc(NC(=O)CN(C)C(=O)c2ccc(NS(=O)(=O)c3ccc(F)cc3)cc2)cc1", "activity change, negative = inhibition": "inconclusive: 8.99%"}, {"smiles": "Oc1ccc(O)c(Cc2nc3ccccc3s2)c1", "activity change, negative = inhibition": "inconclusive: 28.3%"}, {"smiles": "COc1ccc(Cl)cc1NS(=O)(=O)c1c(C)nc2sccn2c1=O", "activity change, negative = inhibition": "inconclusive: -131%"}, {"smiles": "C=C1C(=O)O[C@@H]2[C@H]1CC[C@H](C)[C@]1(O)CCC(=O)[C@@]21C", "activity change, negative = inhibition": "inconclusive: -4.31%"}, {"smiles": "Cc1cccc(C)c1NC(=O)C1CCCN(CCCc2ccccc2)C1", "note": "(stereo not given)", "activity change, negative = inhibition": "inconclusive: 5.87%"}, {"smiles": "O=C(NCCc1cn2ccccc2n1)c1cc(COc2ccc3ncccc3c2)on1", "activity change, negative = inhibition": "inconclusive: -22.1%"}, {"smiles": "COC(=O)c1nc(-c2ccccc2)n[nH]1", "activity change, negative = inhibition": "inactive: 16.3%"}, {"smiles": "Cc1cc(/C=C2\\SC(=O)N(C)C2=O)c(C)n1-c1cccc(C(=O)O)c1", "activity change, negative = inhibition": "inconclusive: -10.1%"}, {"smiles": "CCOc1cccc(C(=O)Nc2ccc(N3CCCC3)cc2)c1", "Potency": "inconclusive: 31.6 µM [falling, partial curve]"}, {"smiles": "CCOC(=O)C1CCN(CC(=O)c2c(C)[nH]c3cc(C)ccc23)CC1", "activity change, negative = inhibition": "inconclusive: -22.6%"}, {"smiles": "O=C(Nc1ccc2nc(-c3ccc(Br)o3)[nH]c2c1)c1ccco1", "activity change, negative = inhibition": "inconclusive: 3%"}, {"smiles": "COc1ccccc1[C@H]1C(c2ccccc2)=NN(c2ccccc2)[C@@H]1CO", "activity change, negative = inhibition": "inconclusive: -2.26%"}, {"smiles": "O=C(Cn1nnc2ccccc21)N/N=C\\C=C\\c1ccccc1", "activity change, negative = inhibition": "inconclusive: 16.6%"}, {"smiles": "Cc1cc(OCCN2CCCC2)ccc1[N+](=O)[O-]", "activity change, negative = inhibition": "inactive: -0.938%"}, {"smiles": "CC(C)c1cccc(C2=CC(=O)C[C@H](c3ccc4c(c3)OCO4)C2)c1", "activity change, negative = inhibition": "inconclusive: 10.2%"}, {"smiles": "Cc1ccc(N=Nc2[nH]c3ccccc3c2O)cc1", "activity change, negative = inhibition": "inactive: -0.324%"}, {"smiles": "Cc1c(C)n(CCc2ccccc2)c2ncnc(NCCCN(C)C)c12", "activity change, negative = inhibition": "inconclusive: 2.31%"}, {"smiles": "COc1ccc(-c2[nH]ncc2/C=C(/C#N)C(=O)NC2CCCCC2)cc1", "activity change, negative = inhibition": "inconclusive: -20.1%"}, {"smiles": "O=C(NC(=S)Nc1cccc(F)c1)c1cccc([N+](=O)[O-])c1", "Potency": "inconclusive: 12.6 µM [cytotoxic, partial curve]"}, {"smiles": "COc1cccc(C(=O)OCC(=O)N2CCc3ccccc3C2)c1", "Potency": "inconclusive: 23.1 µM [falling, partial curve]"}, {"smiles": "O=C(Cc1c(Cl)cccc1Cl)OCc1ccccn1", "activity change, negative = inhibition": "inconclusive: -4.37%"}, {"smiles": "CC(C)c1cccc(C(C)C)c1NC(=O)CNCc1ccccc1F", "activity change, negative = inhibition": "inconclusive: -3.62%"}, {"smiles": "COc1cc(/C=C2\\SC(=O)N(c3ccccc3Cl)C2=O)cc([N+](=O)[O-])c1O", "Potency": "inconclusive: 22.4 µM [rising, single point]"}, {"smiles": "O=C(CN1C(=O)NC2(CCCC2)C1=O)N1CCN(S(=O)(=O)c2ccccc2Br)CC1", "activity change, negative = inhibition": "inconclusive: -0.971%"}, {"smiles": "Cc1ccc(C)c(N/C(N)=N/c2nc(C)cc(C)n2)c1", "activity change, negative = inhibition": "inactive: 0.0114%"}, {"smiles": "Cc1nn(-c2ccccc2)cc1/C=N/NS(=O)(=O)c1ccccc1", "activity change, negative = inhibition": "inconclusive: 6.2%"}, {"smiles": "CCCC1=C(C(=O)OCC)C(c2ccccc2OCC)NC(=O)N1C", "note": "(stereo not given)", "activity change, negative = inhibition": "inconclusive: -1.86%"}, {"smiles": "COc1cccc(-n2cc(CN(C)Cc3nc(Cc4cccc(F)c4)no3)cn2)c1", "Potency": "inconclusive: 12.6 µM [rising, partial curve]"}, {"smiles": "Cn1c2ccccc2c(=O)c2cc(C#CC3=CCCCC3)ccc21", "activity change, negative = inhibition": "inactive: 10.6%"}, {"smiles": "COc1cccc(COc2ccc3ccc(=O)oc3c2)c1", "activity change, negative = inhibition": "inactive: -7.72%"}, {"smiles": "COc1ccc(C)cc1NC(=O)COC(=O)c1c(C)nn(-c2ccccc2)c1C", "activity change, negative = inhibition": "inconclusive: -21.9%"}, {"smiles": "CCOC(=O)c1c(S(=O)(=O)Nc2ccc(CN3CCC(C)CC3)cc2)c(C)n(C)c1C", "activity change, negative = inhibition": "inconclusive: -5.27%"}, {"smiles": "COc1cccc(/C=N/NC(=O)CNC(=O)c2ccc3c(c2)OCCO3)c1O", "activity change, negative = inhibition": "inactive: 0.548%"}, {"smiles": "COc1cccc(OC)c1NC(=O)CN1CCC(NC(=O)c2cccc(F)c2)CC1", "activity change, negative = inhibition": "inconclusive: 8.38%"}, {"smiles": "COCCN1CN(S(=O)(=O)c2ccc(Cl)cc2)c2nc3ccccc3nc21", "activity change, negative = inhibition": "inconclusive: -1.25%"}, {"smiles": "Cc1ccc(CCC(=O)Nc2ncc(Cc3cccc(Cl)c3Cl)s2)o1", "Potency": "inconclusive: 0.326 µM [falling, full curve]"}, {"smiles": "N#C/C(=C/c1cn(CC(=O)O)c2ccccc12)C(=O)Nc1ccccc1", "Potency": "inconclusive: 11.2 µM [falling, partial curve]"}, {"smiles": "CC(=O)c1ccc2c3c(cccc13)CC2", "activity change, negative = inhibition": "inconclusive: -1.8%"}, {"smiles": "CN1CCC(=NNC(=O)c2cc(-c3ccc(Cl)cc3)n[nH]2)CC1", "activity change, negative = inhibition": "inconclusive: -16.1%"}, {"smiles": "O=S(=O)(CC(CN1CCOCC1)N1CCOCC1)c1ccccc1", "note": "(stereo not given)", "activity change, negative = inhibition": "inactive: 6%"}, {"smiles": "O=C1Nc2cc(Cl)c(Cl)cc2N(O)N1c1ccc(Cl)cc1", "Potency": "inconclusive: 35.5 µM [falling, partial curve]"}, {"smiles": "O=C(O)CSc1nc2ccccc2c(=O)[nH]1", "activity change, negative = inhibition": "inconclusive: -28.7%"}, {"smiles": "COC(=O)c1cn(NC(=O)CCC2CCCC2)c(=O)c2ccccc12", "Potency": "inconclusive: 2.06 µM [rising, partial curve, poor fit]"}, {"smiles": "CC(=O)NS(=O)(=O)c1ccc(NC(=O)/C=C/c2ccccc2)cc1", "activity change, negative = inhibition": "inconclusive: -7.1%"}, {"smiles": "Cc1cc(C(=O)CSc2cccc[n+]2[O-])c(C)n1-c1ccccc1", "Potency": "inconclusive: 35.5 µM [cytotoxic, single point]"}, {"smiles": "Cc1cc(NC(=O)C(C)SCC(=O)OCC(=O)N(C)c2ccccc2)no1", "note": "(stereo not given)", "Potency": "inconclusive: 25.9 µM [rising, partial curve, poor fit]"}, {"smiles": "CCOc1ncccc1C(=O)OCC(=O)c1ccc(C)c(C)c1", "Potency": "inconclusive: 17.8 µM [falling, single point]"}, {"smiles": "CCN(Cc1ccccc1)c1ccc(/C=N/NS(=O)(=O)c2ccc(C)c([N+](=O)[O-])c2)cc1", "activity change, negative = inhibition": "inactive: 11.7%"}, {"smiles": "O=c1c2c(nc3nc(CCc4ccccc4)[nH]n13)CCC2", "Potency": "inconclusive: 1.46 µM [rising, partial curve, poor fit]"}, {"smiles": "CCOC(=O)C1CCN(c2c([N+](=O)[O-])c(C(Cl)Cl)nn2-c2ccccc2)CC1", "activity change, negative = inhibition": "inconclusive: 12.9%"}, {"smiles": "O=C1c2ccccc2NC(c2ccc(O)cc2)N1/N=C/c1ccc(O)cc1", "note": "(stereo not given)", "Potency": "inconclusive: 23.1 µM [falling, partial curve]"}, {"smiles": "CC1(C)CC2(CCO1)OC(=O)CC2C(=O)Nc1ccc(Cl)cc1[N+](=O)[O-]", "note": "(stereo not given)", "activity change, negative = inhibition": "inconclusive: 9.41%"}, {"smiles": "N/C(=N\\N=C\\c1ccc(Br)o1)c1nonc1N", "activity change, negative = inhibition": "inconclusive: -16.8%"}, {"smiles": "O=C(c1ccccc1)c1coc2ccc(O)c(CN3CCOCC3)c12", "Potency": "inconclusive: 0.517 µM [falling, full curve, poor fit]"}, {"smiles": "Cc1cc(C)c(C#N)c(SCC(=O)Nc2ccc(S(=O)(=O)Nc3ncccn3)cc2)n1", "activity change, negative = inhibition": "inconclusive: -17.8%"}, {"smiles": "CCc1[nH]nc(C(=O)N2CCCC(N3CCN(c4ccccc4C)CC3)C2)c1C", "note": "(stereo not given)", "activity change, negative = inhibition": "inactive: -2.66%"}, {"smiles": "COC(=O)CC/C(=N/Nc1ccc(Cl)c(Cl)c1)C(=O)OC", "activity change, negative = inhibition": "inconclusive: 4.82%"}, {"smiles": "N#Cc1ccc(Oc2cccc3cccnc23)c([N+](=O)[O-])c1", "activity change, negative = inhibition": "inconclusive: 1.61%"}, {"smiles": "CCCCn1c(N)c(N(CCOC)C(=O)c2ccc(Br)s2)c(=O)[nH]c1=O", "activity change, negative = inhibition": "inconclusive: 12.7%"}]}]}
